EP0600782A1, “C-11 modified pradimicin derivatives” (priority 1992, dated 1994)
At least one compound was matched to its structure with a doubt left.

System: Strain AA 3798
Experiment: Antibiotic susceptibility of the producing strain, antibiotic disks
Assay type: cell-based, unidentified actinomycete
Conditions: disk 30 µg; yeast-glucose-malt agar, 37°C, 4 days
Method: Antibiotic susceptibility of strain AA 3798 was examined using antibiotic disks (Tridisk, Eiken Chemical Co., Ltd). The disks were placed onto the surface of yeast-glucose-malt agar (yeast extract 0.1%, glucose 1%, malt extract 0.1%, CaCl₂·2H₂O 0.05%, and agar 1.5%) which had been seeded by strain AA 3798 (4% inoculum), and the plates were then incubated at 37°C for 4 days.

NC[C@H]1O[C@H](O[C@H]2[C@H](O)[C@@H](O[C@H]3O[C@H](CO)[C@@H](O)[C@H](N)[C@H]3O)[C@H](N)C[C@@H]2N)[C@H](O)[C@@H](O)[C@@H]1O [kanamycin]
Antibiotic susceptibility of strain AA 3798: susceptible

CN(C)[C@@H]1C(O)=C(C(N)=O)C(=O)[C@@]2(O)C(O)=C3C(=O)c4c(O)cccc4[C@@](C)(O)[C@H]3C[C@@H]12 [tetracycline]
Antibiotic susceptibility of strain AA 3798: susceptible
